This passage reports survivor count and T/C results from PubChem BioAssay AID248 (DTP/NCI, 2004).

The list is a part of this screen's results and no random one: it gathers tests that were run many times, whatever their T/C, doses with no T/C, and many T/C values between a quarter and a half above the control. Further doses and runs are listed elsewhere. T/C is the treated group as % of the vehicle group. Some entries give survivors of the animals treated and no T/C: the source files T/C as zero there, which appears to mark a toxic dose or a test without result, not a measured value. Some doses without a T/C left all or most animals alive at the check, yet need not have been tolerated: the source hardly ever lists a survival T/C far under the control, and the zero likely stands for such cases as well. Survivors were counted at the toxicity check, usually on the fifth day, unless a day is given; later deaths do not show. Schedule codes are those of the source, read here as Q, the interval in days (D) or hours (H), X, the number of doses. Some doses were run more than once; the results are listed from low to high. Where survival is the endpoint, the PubChem record calls one and a half times the control and up active, and a quarter to a half above the control has no call in these data; cut-offs in other NCI protocols can differ.

This experiment deals with L1210 leukemia ip in BDF1 mice, survival T/C. As to the kind of experiment: NCI In Vivo Anticancer Drug Screen. Data for tumor model L1210 Leukemia (intraperitoneal) in B6D2F1 (BDF1) mice. The conditions noted are these: T/C endpoint: mean survival time, higher T/C = longer survival.
Where [1] appears, read: dose: 400.0 mg/kg/injection, schedule: Q04DX003 (ip), vehicle: saline with Tween-80.
Where [2] appears, read: dose: 400.0 mg/kg/injection, schedule: Q01DX009 (ip), vehicle: Klucel (hydroxypropylcellulose) (HPC).
Where [3] appears, read: dose: 200.0 mg/kg/injection, schedule: Q01DX009 (ip), vehicle: saline.
[4] abbreviates: dose: 400.0 mg/kg/injection, schedule: Q01DX009 (ip), vehicle: saline.
The mark [5] stands for this setting: dose: 200.0 mg/kg/injection, schedule: Q04DX003 (ip), vehicle: saline.
The mark [6] stands for this setting: dose: 400.0 mg/kg/injection, schedule: Q04DX003 (ip), vehicle: saline.

As for `COC(=O)c1ccccc1NC(=O)CCl`, the survivor count under setting [1] is listed as 5 of 6.

As to `CCCC(C)OS(=O)(=O)c1ccc(N)cc1` (stereo not given), the survivor count under setting [2] is recorded as 5 of 6.

Turning to `CCC[CH2][Sn]1([CH2]CCC)[O]C(=O)c2ccc(C(=O)O)cc2C(=O)[O]1`, the survivor count is on record as 4 of 6 (dose: 10.0 mg/kg/injection, schedule: Q01DX001 (ip), vehicle: saline); 2 of 6 (dose: 20.0 mg/kg/injection, schedule: Q01DX001 (ip), vehicle: saline); 5 of 6 (dose: 40.0 mg/kg/injection, schedule: Q01DX001 (ip), vehicle: saline); 0 of 6 (dose: 80.0 mg/kg/injection, schedule: Q01DX001 (ip), vehicle: saline); 0 of 6 (dose: 100.0 mg/kg/injection, schedule: Q01DX001 (ip), vehicle: saline); 0 of 6 (dose: 200.0 mg/kg/injection, schedule: Q01DX001 (ip), vehicle: saline). For the setting “dose: 400.0 mg/kg/injection, schedule: Q01DX001 (ip), vehicle: saline”, the survivor count is 0 of 6.

Take `O=c1[nH]ncc2c1[nH]c1cccc(Cl)c12`: for the setting “dose: 100.0 mg/kg/injection, schedule: Q04DX003 (ip), vehicle: carboxymethylcellulose (CMC)”, the survivor count was 6 of 6.

Turning to `CNCCC(=O)C1CCC(OC)CC1` (stereo not given), the survivor count (dose: 400.0 mg/kg/injection, schedule: Q04DX002 (ip), vehicle: saline) is 1 of 3.

Turning to `OC(c1cc2ccc(C(F)(F)F)cc2c2cc(C(F)(F)F)ccc12)C1CCCCN1` (stereo not given), the survivor count was 6 of 6 (dose: 12.5 mg/kg/injection, schedule: Q01DX009 (ip), vehicle: saline with Tween-80); 6 of 6 (dose: 25.0 mg/kg/injection, schedule: Q01DX009 (ip), vehicle: saline with Tween-80); 6 of 6 (dose: 50.0 mg/kg/injection, schedule: Q01DX009 (ip), vehicle: saline with Tween-80); 0 of 6 (dose: 100.0 mg/kg/injection, schedule: Q01DX009 (ip), vehicle: saline); 6 of 6 (dose: 100.0 mg/kg/injection, schedule: Q04DX003 (ip), vehicle: Klucel (hydroxypropylcellulose) (HPC)); 0 of 6 under setting [3]. Moreover, the survivor count is, setting by setting: (dose: 200.0 mg/kg/injection, schedule: Q04DX003 (ip), vehicle: Klucel (hydroxypropylcellulose) (HPC)) 3 of 6; under setting [4], 0 of 6; (dose: 400.0 mg/kg/injection, schedule: Q04DX003 (ip), vehicle: Klucel (hydroxypropylcellulose) (HPC)) 0 of 6.

`C/C(=N/NC(N)=S)c1cccc(C(F)(F)F)c1`: under “dose: 150.0 mg/kg/injection, schedule: Q01DX009 (ip), vehicle: Klucel (hydroxypropylcellulose) (HPC)”, the survivor count is listed as 3 of 6.

Regarding `CN1c2ccccc2Sc2ccccc21`, the survivor count (dose: 400.0 mg/kg/injection, schedule: Q01DX001 (ip), vehicle: carboxymethylcellulose (CMC)) is listed as 0 of 4.

As to `Cc1ccc(C(=O)CCl)o1`, the survivor count under setting [1] was 3 of 6.

Take `OC(CC(O)(C(F)(F)F)C(F)(F)F)c1cccc(C(F)(F)F)c1` (stereo not given): the T/C (dose: 200.0 mg/kg/injection, schedule: Q04DX003 (ip), vehicle: other) was 128 % of control.

With `Cc1c(C)c(CC#N)c(C)c(C)c1CC#N`, the survivor count under setting [2] is on record as 6 of 6.

Consider `N=c1ccn(C2OC(CO)C(O)C2O)c(=O)n1O` (stereo not given), for which the T/C was 129 % of control (dose: 20.0 mg/kg/injection, schedule: Q01DX009 (ip), vehicle: saline) and 132 % of control (dose: 40.0 mg/kg/injection, schedule: Q01DX009 (ip), vehicle: saline).

As to `NC(CSSCC(N)=NC1CCCCC1)=NC1CCCCC1`, the survivor count was 1 of 6 (dose: 25.0 mg/kg/injection, schedule: Q01DX009 (ip), vehicle: carboxymethylcellulose (CMC)); 2 of 6 (dose: 50.0 mg/kg/injection, schedule: Q01DX001 (ip), vehicle: saline with Tween-80); 0 of 3 and 3 of 6 (dose: 50.0 mg/kg/injection, schedule: Q01DX009 (ip), vehicle: carboxymethylcellulose (CMC)); 1 of 3 (dose: 50.0 mg/kg/injection, schedule: Q04DX002 (ip), vehicle: carboxymethylcellulose (CMC)); 0 of 3, 2 of 6, 5 of 6 (dose: 100.0 mg/kg/injection, schedule: Q04DX002 (ip), vehicle: carboxymethylcellulose (CMC)); 0 of 3 and 4 of 6 (dose: 200.0 mg/kg/injection, schedule: Q04DX002 (ip), vehicle: carboxymethylcellulose (CMC)). The survivor count by setting is: (dose: 400.0 mg/kg/injection, schedule: Q04DX002 (ip), vehicle: carboxymethylcellulose (CMC)) 0 of 3 and 0 of 6; (dose: 400.0 mg/kg/injection, schedule: Q04DX003 (ip), vehicle: carboxymethylcellulose (CMC)) 0 of 6.

As to `CN(C)CCOCCOC(=O)N1c2ccccc2Sc2ccccc21`, the survivor count is on record as 0 of 6 under setting [3], 0 of 4 under setting [5], 0 of 6 under setting [4] and 0 of 4 under setting [6].

On to `COc1ccccc1NC(=O)c1ccccc1`, for which the survivor count (dose: 200.0 mg/kg/injection, schedule: Q01DX009 (ip), vehicle: Klucel (hydroxypropylcellulose) (HPC)) is given as 6 of 6.

Turning to `Nc1ccn(C2OC(CO)C(OP(=O)(O)O)C2O)c(=O)n1` (stereo not given), the survivor count is reported as 6 of 10 (dose: 160.0 mg/kg/injection, schedule: Q01DX001 (ip), vehicle: water) and 2 of 10 (dose: 320.0 mg/kg/injection, schedule: Q01DX001 (ip), vehicle: water).

Regarding `CCCCCC[P+](c1ccccc1)(c1ccccc1)c1ccccc1`, the survivor count reads like this: (dose: 100.0 mg/kg/injection, schedule: Q04DX003 (ip), vehicle: saline) 0 of 6; under setting [5], 0 of 6; under setting [6], 0 of 6.
